# Experimental data as given in PubChem BioAssay AID445 (National Center for Advancing Translational Sciences (NCATS), 2006).
# This is one part of the list. The main result of the screen is listed elsewhere. These columns were measured beside it and carry no call. The list favours compounds with an active or inconclusive main result. Potencies come from curve fits of mixed quality, noted in brackets.
# Test: IkB Signaling
# Conditions: ABC-DLBCL IkBa-CBG/CBR dual luciferase ratio (green luciferase fused to IkBa over red control in OCI-Ly3 lymphoma cells), 4 h
# In short: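 In this assay, an IκBα–CBG68 fusion accumulates when IKK-driven degradation is blocked; native CBR normalizes for cell number. OCI-Ly3 cells were treated 4 h with compound and doxycycline, then green and red light read after Chroma-Glo addition.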
# [1] = measured here: control luc red channel unless noted
# [2] = measured here: IkB-luc green channel
# [3] = measured here: control luc red channel
structure (smiles),measurement,setting,value
CCCCN(C(=O)CCn1c(=O)oc2ccccc21)c1ccccc1,AC50,[1],"25.1 µM [falling, single point]"
CCOc1ccc(-c2cc(CCCC(=O)NCCc3ccc(SC)cc3)no2)cc1,AC50,[1],"0.501 µM [falling, full curve]"
Cc1ccc(-c2noc(CCC(=O)Nc3cccc(C#N)c3)n2)cc1,AC50,[1],"15.8 µM [falling, partial curve]"
COc1cc(NC(=O)c2noc3c2CC(C(C)(C)C)CC3)cc(OC)c1OC (centres undefined),AC50,[1],"31.6 µM [falling, single point]"
CCN(CC)C(=O)c1sc2c(c1C)c(=O)n(Cc1ccccc1)c(=O)n2Cc1c(C)cc(C)cc1C,AC50,[1],"10 µM [falling, partial curve]"
Cc1cc2c(cc(C(=O)OC(C(=O)NCc3ccco3)C(C)C)n2C)o1 (centres undefined),AC50,[1],"25.1 µM [falling, partial curve]"
CCOC(=O)c1ccc(NC(=O)c2c(NCc3ccc(OC)c(OC)c3OC)sc3c2CCC(C)C3)cc1 (centres undefined),AC50,[1],"15.8 µM [falling, partial curve]"
Cc1ccc(NC(=O)CN2C(=O)c3ccccc3Sc3ccc(C(=O)N4CCOCC4)cc32)c(Cl)c1,AC50,[1],"20 µM [falling, single point]"
c1nc2sc3c(c2c2nnnn12)CCC3,AC50,[1],"15.8 µM [falling, partial curve]"
Cc1conc1NC(c1cccs1)c1ccc2cccnc2c1O (centres undefined),AC50,[2],"3.98 µM [rising, partial curve]"
same,AC50,[3],"12.6 µM [falling, partial curve]"
C=CC(=O)OCCCCCCOC(=O)C=C,AC50,[2],"12.6 µM [rising, partial curve]"
same,AC50,[3],"12.6 µM [falling, full curve]"
CN1C(=O)C(CC(=O)Nc2ccc3c(c2)Cc2ccccc2-3)N(C)C1=O (centres undefined),AC50,[1],"0.398 µM [rising, partial curve, poor fit]"
COc1ccc(OC)c(NC(=O)Nc2cccc(Cn3cccn3)c2)c1,AC50,[1],"15.8 µM [falling, partial curve]"
CCOc1ccccc1NC(=O)Nc1cc2c(cc1N1CCCCC1)n(CC)c(=O)n2CC,AC50,[1],"3.16 µM [falling, single point]"
CCOc1ccccc1CNCc1c(C(=O)O)n(Cc2ccc(F)cc2)c2cc(C)ccc12,AC50,[1],"1.58 µM [rising, partial curve, poor fit]"
Cc1ccc(C)c(S(=O)(=O)Nc2ccccc2C(=O)Nc2cc(C)on2)c1,AC50,[1],"6.31 µM [falling, partial curve]"
Cc1ccc(-c2noc(-c3cc(-c4ccc(F)cc4)n[nH]3)n2)cc1,AC50,[1],"15.8 µM [rising, partial curve]"
O=C(Nc1c(-c2ccccc2)nc2ccccn12)c1ccccc1F,AC50,[1],"12.6 µM [falling, partial curve]"
Cc1cc(C)cc(NC(=O)CNS(=O)(=O)c2ccc3nc(C)sc3c2)c1,AC50,[1],"12.6 µM [falling, single point]"
O=S(=O)(c1ccc(-c2csc(=Nc3ccc(OC(F)(F)Cl)cc3)n2CCCO)cc1)N1CCCC1,AC50,[1],"6.31 µM [falling, partial curve]"
Cc1ccsc1C1C=C(c2cccc(Br)c2)Nc2ncnn21 (centres undefined),AC50,[1],"12.6 µM [falling, partial curve]"
COc1ccc(CCNC(=O)c2cc(-c3ccccc3OC)on2)cc1OC,AC50,[1],"0.251 µM [falling, full curve]"
Cc1ccc(C2C(C#N)=C(N)Oc3cc4c(cc32)OCO4)cc1 (centres undefined),AC50,[1],"25.1 µM [falling, single point]"
CCOc1ccc(-c2nnc(SCC(=O)c3ccccc3)n2-c2ccccc2)cc1,AC50,[1],"3.98 µM [falling, full curve]"
Cn1cccc1-c1cc2n(n1)CCC(=O)N2CCCC(=O)NCc1ccc(F)cc1,AC50,[1],"1.58 µM [falling, full curve, poor fit]"
Cc1cc(=O)[nH]c2nnc(SCc3ccc(C(F)(F)F)cc3)n12,AC50,[1],"3.98 µM [rising, partial curve]"
Cc1ccc(NC(=O)c2ncoc2-c2ccco2)cc1Cl,AC50,[1],"3.16 µM [rising, single point]"
COc1ccc2cc(CNc3ccc(OC)c(OC)c3)c(=O)n(CC(=O)Nc3ccccc3F)c2c1,AC50,[1],"15.8 µM [falling, partial curve]"
CCOC(=O)c1[nH]c(C)c(CCC(=O)Nc2cccc(SC)c2)c1C,AC50,[1],"15.8 µM [falling, partial curve, poor fit]"
COc1cccc(NS(=O)(=O)c2ccc3[nH]cc(C(=O)NC4CC4)c(=O)c3c2)c1,AC50,[1],"10 µM [falling, partial curve]"
CCOc1ccc(OCC)c(NC(=O)CCc2nc3cccnc3n2Cc2cccs2)c1,AC50,[1],"25.1 µM [falling, single point]"
COc1ccc(-c2nc(C)c(CCNC(=O)c3c(F)cccc3F)s2)cc1,AC50,[1],"39.8 µM [falling, single point]"
COC(=O)N1CCCc2cc(S(=O)(=O)N3CCN(c4ccccc4)CC3)ccc21,AC50,[1],"10 µM [falling, partial curve, poor fit]"
COc1cc(Cl)c(C)cc1NC(=O)CSc1nc2c(c(=O)[nH]1)CCCC2,AC50,[1],"20 µM [falling, single point]"
COc1cc(OC)c(NC(=O)n2ncc3cc(Cl)ccc32)cc1Cl,AC50,[1],"39.8 µM [falling, single point]"
COc1ccc(C2CC(=O)c3c([nH]c(C(=O)OC4CCCCCC4)c3C)C2)cc1 (centres undefined),AC50,[1],"20 µM [falling, partial curve, poor fit]"
COc1ccc(OC)c(NC(=O)CSC2=Nc3ccccc3C3=NC(CC(=O)NCc4ccc(F)cc4)C(=O)N23)c1 (centres undefined),AC50,[1],"3.98 µM [falling, single point]"
O=C(Nc1ccccc1O)c1cc(S(=O)(=O)N2CCCC2)ccc1Cl,AC50,[1],"20 µM [falling, single point]"
COc1ccc2c(c1)c1c(c(=O)n(-c3ccc(OC)c(OC)c3)c(=O)n1CC(=O)N1CCCC1)n2C,AC50,[1],"0.126 µM [rising, full curve]"
Cc1ccc(CNC(=O)CSc2ncc(S(=O)(=O)c3ccc(C)c(Cl)c3)c(=O)[nH]2)cc1,AC50,[1],"15.8 µM [falling, partial curve]"
O=C(Nc1ccc2[nH]c(=O)c(=O)[nH]c2c1)c1cccc(F)c1,AC50,[1],"0.0316 µM [rising, full curve]"
Cc1nc2nc(SCC(=O)NCCc3ccc(Cl)cc3)nn2c(C)c1Cc1ccccc1Cl,AC50,[1],"25.1 µM [falling, single point]"
Cc1ccccc1C1=CCN(c2ncc(NC(=O)c3ccc(Cl)cc3)cc2C(=O)O)CC1,AC50,[1],"5.01 µM [falling, partial curve, poor fit]"
Cc1nc2c(-c3ccccc3)c(C)nn2c(C)c1CCC(=O)Nc1ccccc1F,AC50,[1],"31.6 µM [falling, partial curve]"
CCOc1ccc(NC(=O)c2sc3ccccc3c2Cl)cc1,AC50,[1],"0.0794 µM [rising, full curve, poor fit]"
COc1ccc(C2CC(=O)Nc3c2c(=O)n(C)c2nc4ccccc4n32)cc1 (centres undefined),AC50,[1],"3.98 µM [rising, single point]"
CS(=O)(=O)n1nc(-c2ccco2)nc1NCc1ccccc1Cl,AC50,[1],"15.8 µM [falling, partial curve, poor fit]"
COc1ccc(C(=O)c2cn(Cc3cccc(C)c3)c3cc4c(cc3c2=O)OCO4)cc1,AC50,[1],"31.6 µM [falling, partial curve]"
CCOC(=O)c1[nH]c(C)c(C(=O)NCc2cccc(OC)c2)c1C,AC50,[1],"7.94 µM [falling, partial curve]"
COC(=O)Cc1cc(=O)[nH]c(Nc2nc3ccccc3o2)n1,AC50,[1],"7.94 µM [falling, full curve]"
COc1cccc(-c2nc(CS(=O)(=O)CC(=O)NCCCN3CCc4ccccc4C3)c(C)o2)c1,AC50,[1],"10 µM [falling, partial curve]"
Cc1ccc(NS(=O)(=O)c2ccc3c(c2)[C@H]2C=CC[C@H]2[C@@H](c2ccc(F)cc2)N3)cc1C,AC50,[1],"15.8 µM [falling, partial curve]"
Cn1c(=O)c2c(SCC(=O)NCc3ccc(F)cc3)nc(-c3ccccc3Cl)nc2n(C)c1=O,AC50,[1],"6.31 µM [falling, partial curve]"
O=C(CSC1=NCCS1)Nc1ccnc2ccccc12,AC50,[1],"2.51 µM [falling, full curve]"
COc1ccc(CCNC(=O)C2CCCN(Cc3nc(-c4ccccc4C)oc3C)C2)cc1OC (centres undefined),AC50,[1],"10 µM [falling, partial curve]"
COc1cc(NC(=O)CCS(=O)(=O)c2nc(-c3ccc4c(c3)OCO4)cc(C(F)(F)F)n2)cc(OC)c1OC,AC50,[1],"10 µM [falling, partial curve]"
COCCCN1C(=O)c2[nH]nc(-c3ccccc3O)c2C1c1ccc(OCc2ccccc2)cc1 (centres undefined),AC50,[1],"10 µM [falling, partial curve]"
C1=C(N2CCOCC2)/C(=C/c2nc3ccccc3[nH]2)CC1,AC50,[1],"6.31 µM [falling, partial curve]"
CCCCNC(=O)C1CCC(CNS(=O)(=O)c2ccc(C)cc2)CC1 (centres undefined),AC50,[1],"3.98 µM [rising, single point]"
Cc1nc(NC(=O)c2c(-c3ccccc3)c(-c3ccccc3)nn(C)c2=O)sc1C,AC50,[1],"3.16 µM [falling, single point]"
Cc1cc(C)c(NC(=O)CCn2c(=O)c3cccn3c3ccccc32)c(C)c1,AC50,[1],"12.6 µM [falling, partial curve]"
CCN1CCN(C(c2ccc(SC)cc2)c2c(O)cc(C)n(Cc3ccco3)c2=O)CC1 (centres undefined),AC50,[1],"39.8 µM [rising, single point] [measured here: IkB-luc green channel]"

# A different layout for some results above:
structure (smiles) | measurement | setting | value
CCOc1ccccc1CNCc1c(C(=O)O)n(Cc2ccc(F)cc2)c2cc(C)ccc12 | AC50 | [1] | 1.58 µM [rising, partial curve, poor fit]
Cc1ccc(C)c(S(=O)(=O)Nc2ccccc2C(=O)Nc2cc(C)on2)c1 | AC50 | [1] | 6.31 µM [falling, partial curve]
Cc1ccc(-c2noc(-c3cc(-c4ccc(F)cc4)n[nH]3)n2)cc1 | AC50 | [1] | 15.8 µM [rising, partial curve]
O=C(Nc1c(-c2ccccc2)nc2ccccn12)c1ccccc1F | AC50 | [1] | 12.6 µM [falling, partial curve]
